Experimental data published in article PMC8795447.
Results are given in words; binding and its absence hold for the method and conditions named. Binding seen in cells or lysates may run through a third protein. Some results given as binding are weak or reduced against the parent protein; the word gives no strength.

Sequences of proteins named here, by UniProt entry; tags and fusion partners are left off. A change or cut given only in a name is not applied to a line headed by its entry. A line that says so, or that is headed by a name, gives the form on record, which may keep a tag or linker. Residues count along the entry.
AT1R^S348A (P30556, form named): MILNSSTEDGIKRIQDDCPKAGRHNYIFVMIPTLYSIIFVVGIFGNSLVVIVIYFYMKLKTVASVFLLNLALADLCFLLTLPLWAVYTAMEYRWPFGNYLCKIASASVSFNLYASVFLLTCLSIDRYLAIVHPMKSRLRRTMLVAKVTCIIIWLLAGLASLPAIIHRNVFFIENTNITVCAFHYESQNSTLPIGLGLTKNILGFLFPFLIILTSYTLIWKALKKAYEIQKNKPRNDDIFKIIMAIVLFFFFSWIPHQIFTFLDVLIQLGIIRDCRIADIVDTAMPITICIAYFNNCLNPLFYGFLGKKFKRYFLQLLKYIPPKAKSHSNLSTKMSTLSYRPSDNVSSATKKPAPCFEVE
AT1R^S347A (P30556, form named): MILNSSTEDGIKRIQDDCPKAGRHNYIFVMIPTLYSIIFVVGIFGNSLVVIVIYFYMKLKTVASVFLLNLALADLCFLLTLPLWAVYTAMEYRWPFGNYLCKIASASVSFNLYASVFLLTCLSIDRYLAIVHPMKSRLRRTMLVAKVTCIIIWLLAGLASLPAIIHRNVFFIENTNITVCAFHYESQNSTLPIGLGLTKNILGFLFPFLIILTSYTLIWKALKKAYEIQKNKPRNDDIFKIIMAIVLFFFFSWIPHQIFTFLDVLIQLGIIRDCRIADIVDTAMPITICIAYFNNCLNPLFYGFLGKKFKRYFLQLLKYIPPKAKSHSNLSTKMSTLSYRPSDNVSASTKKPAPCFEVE
AT1R^S347A/S348A (P30556, form named): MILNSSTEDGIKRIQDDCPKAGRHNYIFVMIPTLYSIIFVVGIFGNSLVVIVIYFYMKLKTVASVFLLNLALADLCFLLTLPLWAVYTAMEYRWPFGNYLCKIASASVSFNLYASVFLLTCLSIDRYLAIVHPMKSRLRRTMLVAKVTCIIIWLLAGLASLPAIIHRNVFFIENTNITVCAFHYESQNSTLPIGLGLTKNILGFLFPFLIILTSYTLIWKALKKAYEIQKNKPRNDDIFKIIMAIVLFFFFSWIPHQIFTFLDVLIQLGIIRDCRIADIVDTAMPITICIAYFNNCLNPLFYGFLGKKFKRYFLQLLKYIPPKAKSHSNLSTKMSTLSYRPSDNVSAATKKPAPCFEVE
UniProt P08912: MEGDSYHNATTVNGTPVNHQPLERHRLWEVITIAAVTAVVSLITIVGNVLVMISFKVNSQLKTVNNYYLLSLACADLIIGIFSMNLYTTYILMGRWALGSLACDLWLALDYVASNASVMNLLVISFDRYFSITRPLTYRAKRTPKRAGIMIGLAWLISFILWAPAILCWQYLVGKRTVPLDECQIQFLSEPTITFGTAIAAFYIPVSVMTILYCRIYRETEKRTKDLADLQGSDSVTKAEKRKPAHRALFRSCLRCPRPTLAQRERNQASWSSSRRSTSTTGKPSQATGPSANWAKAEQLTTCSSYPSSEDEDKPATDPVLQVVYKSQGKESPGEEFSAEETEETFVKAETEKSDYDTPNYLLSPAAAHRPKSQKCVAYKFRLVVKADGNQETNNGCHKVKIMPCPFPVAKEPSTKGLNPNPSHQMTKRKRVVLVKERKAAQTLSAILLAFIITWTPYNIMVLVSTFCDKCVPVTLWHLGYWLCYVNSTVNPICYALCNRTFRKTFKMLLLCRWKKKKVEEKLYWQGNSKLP
UniProt P42866: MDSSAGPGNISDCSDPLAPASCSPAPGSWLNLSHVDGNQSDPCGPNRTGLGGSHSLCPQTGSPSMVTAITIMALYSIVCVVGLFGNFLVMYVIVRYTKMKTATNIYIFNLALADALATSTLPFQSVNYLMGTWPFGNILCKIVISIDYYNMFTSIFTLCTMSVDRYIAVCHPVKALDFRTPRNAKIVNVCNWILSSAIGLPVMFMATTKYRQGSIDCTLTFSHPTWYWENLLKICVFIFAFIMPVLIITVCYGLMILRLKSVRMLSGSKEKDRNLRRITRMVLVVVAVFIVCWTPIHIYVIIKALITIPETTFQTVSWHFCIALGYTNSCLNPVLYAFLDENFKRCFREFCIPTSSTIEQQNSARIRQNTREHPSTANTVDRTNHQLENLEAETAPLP
UniProt P08172: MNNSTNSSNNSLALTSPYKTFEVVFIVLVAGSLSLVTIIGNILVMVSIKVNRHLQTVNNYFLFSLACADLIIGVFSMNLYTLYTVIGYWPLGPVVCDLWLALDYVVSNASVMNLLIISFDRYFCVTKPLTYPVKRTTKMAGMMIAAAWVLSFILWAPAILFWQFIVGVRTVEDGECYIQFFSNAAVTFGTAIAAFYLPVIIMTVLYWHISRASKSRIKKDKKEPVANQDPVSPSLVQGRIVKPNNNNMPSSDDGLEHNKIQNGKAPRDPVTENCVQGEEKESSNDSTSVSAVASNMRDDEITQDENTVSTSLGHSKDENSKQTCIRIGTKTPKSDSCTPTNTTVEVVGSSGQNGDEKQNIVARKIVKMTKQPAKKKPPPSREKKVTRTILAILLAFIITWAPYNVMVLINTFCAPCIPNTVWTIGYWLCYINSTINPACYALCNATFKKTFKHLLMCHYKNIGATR
UniProt P08173: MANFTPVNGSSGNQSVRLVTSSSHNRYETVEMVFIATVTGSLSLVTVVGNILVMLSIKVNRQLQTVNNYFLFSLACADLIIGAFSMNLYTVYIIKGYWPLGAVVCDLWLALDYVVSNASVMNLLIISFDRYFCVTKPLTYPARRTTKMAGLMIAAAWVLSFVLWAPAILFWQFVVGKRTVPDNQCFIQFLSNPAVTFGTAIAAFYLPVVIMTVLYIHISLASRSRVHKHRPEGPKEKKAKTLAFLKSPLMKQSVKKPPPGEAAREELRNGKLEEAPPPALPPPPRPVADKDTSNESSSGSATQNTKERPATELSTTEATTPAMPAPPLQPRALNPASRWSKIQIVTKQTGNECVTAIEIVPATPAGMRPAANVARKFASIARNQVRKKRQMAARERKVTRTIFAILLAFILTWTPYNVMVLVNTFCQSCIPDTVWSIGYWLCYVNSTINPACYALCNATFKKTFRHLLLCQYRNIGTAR
UniProt P21730: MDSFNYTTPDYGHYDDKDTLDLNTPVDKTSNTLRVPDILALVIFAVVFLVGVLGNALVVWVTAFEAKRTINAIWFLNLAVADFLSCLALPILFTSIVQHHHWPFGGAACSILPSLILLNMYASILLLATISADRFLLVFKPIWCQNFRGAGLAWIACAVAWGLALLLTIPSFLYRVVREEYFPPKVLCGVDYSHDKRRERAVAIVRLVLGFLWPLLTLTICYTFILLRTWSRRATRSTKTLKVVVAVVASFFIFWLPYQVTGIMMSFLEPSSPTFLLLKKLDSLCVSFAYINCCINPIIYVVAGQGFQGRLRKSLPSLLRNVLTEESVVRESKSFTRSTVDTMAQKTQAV
UniProt P20309: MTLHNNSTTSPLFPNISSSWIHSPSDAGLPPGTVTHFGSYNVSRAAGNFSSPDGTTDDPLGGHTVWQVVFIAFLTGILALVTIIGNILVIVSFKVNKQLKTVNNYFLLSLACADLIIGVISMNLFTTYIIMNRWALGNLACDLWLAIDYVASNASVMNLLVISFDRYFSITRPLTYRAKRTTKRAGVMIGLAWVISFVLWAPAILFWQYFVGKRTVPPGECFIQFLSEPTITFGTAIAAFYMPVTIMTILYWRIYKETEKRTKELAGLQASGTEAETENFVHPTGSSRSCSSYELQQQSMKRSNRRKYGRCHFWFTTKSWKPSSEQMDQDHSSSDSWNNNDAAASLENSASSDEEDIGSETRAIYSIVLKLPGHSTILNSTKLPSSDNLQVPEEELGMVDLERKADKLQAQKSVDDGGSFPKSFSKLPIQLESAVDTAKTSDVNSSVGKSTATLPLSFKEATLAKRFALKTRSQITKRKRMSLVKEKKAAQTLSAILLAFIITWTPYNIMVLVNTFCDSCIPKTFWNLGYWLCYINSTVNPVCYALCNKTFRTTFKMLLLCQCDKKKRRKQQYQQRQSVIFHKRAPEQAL
UniProt Q03431, residues 27-593: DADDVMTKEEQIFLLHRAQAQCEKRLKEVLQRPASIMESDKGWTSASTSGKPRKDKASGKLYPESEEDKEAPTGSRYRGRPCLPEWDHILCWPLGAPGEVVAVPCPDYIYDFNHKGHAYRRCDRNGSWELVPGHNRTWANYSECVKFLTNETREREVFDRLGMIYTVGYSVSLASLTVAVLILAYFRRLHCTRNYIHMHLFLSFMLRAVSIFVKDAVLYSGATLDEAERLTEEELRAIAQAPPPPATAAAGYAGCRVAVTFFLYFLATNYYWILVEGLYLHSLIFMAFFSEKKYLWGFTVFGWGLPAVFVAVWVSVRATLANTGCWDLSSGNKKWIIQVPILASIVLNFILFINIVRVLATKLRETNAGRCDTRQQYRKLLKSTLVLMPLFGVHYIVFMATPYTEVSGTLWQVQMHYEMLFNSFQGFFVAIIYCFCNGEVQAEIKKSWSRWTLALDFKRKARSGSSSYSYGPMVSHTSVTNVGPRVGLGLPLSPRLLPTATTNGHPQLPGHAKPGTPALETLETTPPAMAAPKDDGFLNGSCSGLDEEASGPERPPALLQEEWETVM
UniProt P17870: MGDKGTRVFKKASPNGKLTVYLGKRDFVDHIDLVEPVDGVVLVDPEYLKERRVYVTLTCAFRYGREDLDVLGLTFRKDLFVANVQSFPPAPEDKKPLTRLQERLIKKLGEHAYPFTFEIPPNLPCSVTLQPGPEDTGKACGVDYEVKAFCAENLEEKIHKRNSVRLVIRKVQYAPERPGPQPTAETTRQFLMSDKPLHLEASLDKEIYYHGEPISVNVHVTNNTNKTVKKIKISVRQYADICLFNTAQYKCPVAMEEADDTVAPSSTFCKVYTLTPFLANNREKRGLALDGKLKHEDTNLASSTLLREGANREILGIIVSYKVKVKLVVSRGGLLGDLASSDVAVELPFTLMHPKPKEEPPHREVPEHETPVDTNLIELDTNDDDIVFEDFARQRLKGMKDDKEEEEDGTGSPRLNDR

How the values were obtained:
[1] = target: angiotensin II type 1 receptor-NanoLuc (human) (UniProt P30556); assay: condition: only in ΔQ-GRK cells with the PKC inhibitor Gö6983 (500 nM); FRET or BRET; intermolecular NanoBRET (AT1R-NanoLuc, Halo-Tag-β-arrestin) in ΔQ-GRK cells + empty vector, pre-incubated with 500 nM PKC inhibitor Gö6983 at 37 °C for 1 h, then AngII
[2] = target: muscarinic acetylcholine receptor M5-NanoLuc (human) (UniProt P08912); assay: condition: only in ΔQ-GRK cells (knockout of GRK2, 3, 5 and 6); FRET or BRET; intermolecular NanoBRET (GPCR-NanoLuc, Halo-Tag-β-arrestin) in ΔQ-GRK cells + empty vector (knockout of GRK2, 3, 5 and 6), agonist-stimulated
[3] = target: muscarinic acetylcholine receptor M5-NanoLuc (human) (UniProt P08912); assay: FRET or BRET; intermolecular NanoBRET in living HEK293 cells: GPCR-NanoLuc (donor) and Halo-Tag-β-arrestin labelled with Halo 618 ligand (acceptor); Control, ΔGRK clones or ΔQ-GRK with EV or one overexpressed GRK (2, 3, 5 or 6); baseline 3 min, then agonist for 5 min; some experiments with Gö6983, cmpd101, pindolol or Losartan
[4] = target: µ-opioid receptor-NanoLuc (murine) (UniProt P42866); assay: as above
[5] = target: muscarinic acetylcholine receptor M2-NanoLuc (human) (UniProt P08172); assay: as above
[6] = target: muscarinic acetylcholine receptor M4-NanoLuc (human) (UniProt P08173); assay: as above
[7] = target: complement 5a receptor 1-NanoLuc (human) (UniProt P21730); assay: as above
[8] = target: angiotensin II type 1 receptor-NanoLuc (human) (UniProt P30556); assay: as above
[9] = target: muscarinic acetylcholine receptor M3-NanoLuc (human) (UniProt P20309); assay: as above
AT1R^S348A (human) = AT1R^S348A (human) (UniProt P30556); assay: as above
AT1R^S347A (human) = AT1R^S347A (human) (UniProt P30556); assay: as above
AT1R^S347A/S348A (human) = AT1R^S347A/S348A (human) (UniProt P30556); assay: as above
[10] = target: parathyroid hormone 1 receptor-Halo-Tag (human) (UniProt Q03431); assay: FRET or BRET; intermolecular NanoBRET in living HEK293 cells, BRET pair swapped: GPCR-Halo-Tag (PTH1R, V2R) and β-arrestin-NanoLuc; Control, ΔGRK clones or ΔQ-GRK with EV or one overexpressed GRK; baseline and after agonist (PTH(1-34) or AVP); some experiments with Tolvaptan

| Substance | binding [1] | binding [2] | binding [3] | binding [4] | binding [5] | binding [6] | binding [7] | binding [8] | binding [9] | binding (AT1R^S348A (human)) | binding (AT1R^S347A (human)) | binding (AT1R^S347A/S348A (human)) | binding [10] |
| --- | --- | --- | --- | --- | --- | --- | --- | --- | --- | --- | --- | --- | --- |
| Halo-Tag-β-arrestin1 (from UniProt P17870 1-418) | no binding | no binding | binds | binds | binds | binds | binds | binds | – | – | – | – | – |
| Halo-Tag-β-arrestin2 (from UniProt P32120 1-420) | – | – | binds | binds | binds | binds | binds | binds | binds | binds | binds | binds | – |
| β-arrestin1-NanoLuc (from UniProt P17870 1-418) | – | – | – | – | – | – | – | – | – | – | – | – | binds |
| β-arrestin2-NanoLuc (from UniProt P32120 1-420) | – | – | – | – | – | – | – | – | – | – | – | – | binds |
